Patent US20050004007A1, “Promotion of adoptosis in cancer cells by co-administration of cyclin dependent kinase inhibitiors and cellular differentiation agents” (priority 2000, published 2005)
Some entries share one result that the patent states for a list of compounds.

Tests used:
blasts from AML patients = experiment: morphological assessment of apoptosis in primary leukemic blasts; type: cell-based, human; conditions: 24 hours; 75 nM or 100 nM FP, 1 mM SB alone; combination 100 nM FP and 1 mM SB; two patients
[1] = test system: U937 human leukemia cells; experiment: morphological assessment of apoptosis (Wright and Giemsa-stained cytospin); type: cell-based; conditions: 1 mM SB or 100 nM FP alone, 24 h or 48 h
Source text: Cell culture. The myelomonocytic leukemia cell line U937 was derived from a patient with histiocytic lymphoma and was obtained from American Type Culture Collection. The HL-60 cell line was derived from a patient with acute promyelocytic leukemia as previously described [Grant et al. 1992]. U937 and HL-60 cells were maintained in logarithmic growth phase by culturing in suspension in phenol red-free RPMI-1640 (Life Technologies, Inc., Grand Island, N.Y.) and 10% (v/v) fetal calf serum (Hyclone, Logan, Utah), in a humidified atmosphere (95% air/5% CO2) at 37° C. To obtain antisense-expressing cell lines, U937 cells were transfected by electroporation with a pREP4 vector (Invitrogen; Carlsbad, Calif.) or the pREP4 vector containing the p21^WAF1/CIP1 coding region in an antisense orientation as previously described [Wang et al. 1999]. […]
Morphological assessment of apoptosis. U937 cells were evaluated for apoptosis by morphological assessment of Wright and Giemsa-stained cytospin preparations. At designated times, cells were transferred to slides by cytocentrifugation, fixed, stained, and evaluated under light microscopy for treatment-induced apoptosis. […] Five or more randomly selected fields, encompassing a total≧500 cells/slide, were evaluated to determine the percentage of apoptotic cells for each treatment condition.

Question: Which results are given for `CN1CC[C@H](c2c(O)cc(O)c3c(=O)cc(-c4ccccc4Cl)oc23)[C@H](O)C1` [FP, Flavopiridol]?
Answer: extent of apoptosis (blasts from AML patients): 15-20%; percentage of apoptotic cells [1]: ≤ 15%
